PubChem BioAssay AID686943 | Drosophila RNAi Screening Center – 2013
Screen: 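Search across the genome for regulators of signalling from receptor tyrosine kinase to ERK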 (primary screen). Cell system: Drosophila S2R+ haemocyte-like cells expressing YFP-tagged ERK (Rolled). Knock-down reagent: long dsRNA against Drosophila genes. Treatment: insulin stimulation versus unstimulated cells; dose and duration not given. Measurement: 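Antibody staining for doubly phosphorylated ERK divided by ERK-YFP signal, as plate z-scores, in insulin-treated and untreated cells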. Direction: replicate 1, z-score of dpERK with insulin: higher = more active ERK per ERK-YFP after insulin.
The screen tested about 23,000 reagents; this is a random part of those with a known target gene and a result. 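Extra replicates exist only for a retested subset of genes; insulin dose and duration not given; both raised and lowered dpERK matter.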 A plus sign joins genes that one reagent is predicted to hit. Not all columns of the deposit are shown. Not given: the amount of reagent, the time to read-out.

{"predicted target": "CG30472", "dsRNA": "DRSC22245", "replicate 1, z-score of dpERK with insulin": 0.89}
{"predicted target": "Frl", "dsRNA": "DRSC09300", "replicate 1, z-score of dpERK with insulin": 0.26}
{"predicted target": "Frl", "dsRNA": "DRSC10027", "replicate 1, z-score of dpERK with insulin": 0.12}
{"predicted target": "Frl", "dsRNA": "DRSC10716", "replicate 1, z-score of dpERK with insulin": 1.64}
{"predicted target": "LpR2", "dsRNA": "DRSC13726", "replicate 1, z-score of dpERK with insulin": 0.72}
{"predicted target": "LpR2", "dsRNA": "DRSC13728", "replicate 1, z-score of dpERK with insulin": -0.46}
{"predicted target": "LpR2", "dsRNA": "DRSC15655", "replicate 1, z-score of dpERK with insulin": 0.33}
{"predicted target": "LpR2", "dsRNA": "DRSC15658", "replicate 1, z-score of dpERK with insulin": 0.3}
{"predicted target": "Dip-B", "dsRNA": "DRSC16466", "replicate 1, z-score of dpERK with insulin": -0.54}
{"predicted target": "lncRNA:CR43451", "dsRNA": "DRSC13352", "replicate 1, z-score of dpERK with insulin": -0.33}
{"predicted target": "Plp", "dsRNA": "DRSC10006", "replicate 1, z-score of dpERK with insulin": 0.55}
{"predicted target": "Plp", "dsRNA": "DRSC10333", "replicate 1, z-score of dpERK with insulin": -0.13}
{"predicted target": "Plp", "dsRNA": "DRSC10700", "replicate 1, z-score of dpERK with insulin": 0.26}
{"predicted target": "CR42532", "dsRNA": "DRSC06713", "replicate 1, z-score of dpERK with insulin": -0.64}
{"predicted target": "CG32264", "dsRNA": "DRSC08061", "replicate 1, z-score of dpERK with insulin": 0.47}
{"predicted target": "CG32264", "dsRNA": "DRSC08167", "replicate 1, z-score of dpERK with insulin": 0.27}
{"predicted target": "CG32264", "dsRNA": "DRSC08169", "replicate 1, z-score of dpERK with insulin": 0.05}
{"predicted target": "CG32264", "dsRNA": "DRSC08285", "replicate 1, z-score of dpERK with insulin": 1.08}
{"predicted target": "CG32264", "dsRNA": "DRSC08437", "replicate 1, z-score of dpERK with insulin": -1.94}
{"predicted target": "CG3285", "dsRNA": "DRSC00589", "replicate 1, z-score of dpERK with insulin": -0.13}
{"predicted target": "CG32069 + Blos2", "dsRNA": "DRSC10621", "replicate 1, z-score of dpERK with insulin": 0.32}
{"predicted target": "CG34165", "dsRNA": "DRSC01970", "replicate 1, z-score of dpERK with insulin": -3.22}
{"predicted target": "CG32483", "dsRNA": "DRSC07902", "replicate 1, z-score of dpERK with insulin": -0.06}
{"predicted target": "CheB53b", "dsRNA": "DRSC05613", "replicate 1, z-score of dpERK with insulin": 0.38}
{"predicted target": "CycT", "dsRNA": "DRSC11124", "replicate 1, z-score of dpERK with insulin": 5.37}
{"predicted target": "CG7548", "dsRNA": "DRSC10874", "replicate 1, z-score of dpERK with insulin": 0.87}
{"predicted target": "Vps39", "dsRNA": "DRSC16205", "replicate 1, z-score of dpERK with insulin": 0.52}
{"predicted target": "CG17027", "dsRNA": "DRSC10238", "replicate 1, z-score of dpERK with insulin": -0.43}
{"predicted target": "CG14297", "dsRNA": "DRSC14776", "replicate 1, z-score of dpERK with insulin": 0.43}
{"predicted target": "CG1523", "dsRNA": "DRSC15033", "replicate 1, z-score of dpERK with insulin": -0.25}
{"predicted target": "CG13999", "dsRNA": "DRSC02331", "replicate 1, z-score of dpERK with insulin": 0.24}

A portion from the list above:
{"predicted target": "Plp", "dsRNA": "DRSC10333", "replicate 1, z-score of dpERK with insulin": -0.13}
{"predicted target": "Plp", "dsRNA": "DRSC10700", "replicate 1, z-score of dpERK with insulin": 0.26}
{"predicted target": "CR42532", "dsRNA": "DRSC06713", "replicate 1, z-score of dpERK with insulin": -0.64}
{"predicted target": "CG32264", "dsRNA": "DRSC08061", "replicate 1, z-score of dpERK with insulin": 0.47}
